Assay results reported in paper PMC12430012.
Results are given in words; binding and its absence hold for the method and conditions named. In cells and extracts the contact can be indirect.

Sequences of proteins named here, by UniProt entry; tags and fusion partners are left off. A change or cut given only in a name is not applied to a line headed by its entry. A line that says so, or that is headed by a name, gives the form on record, which may keep a tag or linker.
FLAG-tagged DNAJB11 T188E (Q9UBS4, form named): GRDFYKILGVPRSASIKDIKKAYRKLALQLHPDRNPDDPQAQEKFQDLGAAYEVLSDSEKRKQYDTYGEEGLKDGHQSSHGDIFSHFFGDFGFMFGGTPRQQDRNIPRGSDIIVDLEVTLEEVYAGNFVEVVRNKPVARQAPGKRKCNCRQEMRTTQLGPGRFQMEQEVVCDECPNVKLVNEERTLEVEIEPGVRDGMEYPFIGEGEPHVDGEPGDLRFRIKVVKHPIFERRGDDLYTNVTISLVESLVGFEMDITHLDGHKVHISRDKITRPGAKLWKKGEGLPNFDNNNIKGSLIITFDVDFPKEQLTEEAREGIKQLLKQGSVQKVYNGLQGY
FLAG-tagged DNAJB11 T188A (Q9UBS4, form named): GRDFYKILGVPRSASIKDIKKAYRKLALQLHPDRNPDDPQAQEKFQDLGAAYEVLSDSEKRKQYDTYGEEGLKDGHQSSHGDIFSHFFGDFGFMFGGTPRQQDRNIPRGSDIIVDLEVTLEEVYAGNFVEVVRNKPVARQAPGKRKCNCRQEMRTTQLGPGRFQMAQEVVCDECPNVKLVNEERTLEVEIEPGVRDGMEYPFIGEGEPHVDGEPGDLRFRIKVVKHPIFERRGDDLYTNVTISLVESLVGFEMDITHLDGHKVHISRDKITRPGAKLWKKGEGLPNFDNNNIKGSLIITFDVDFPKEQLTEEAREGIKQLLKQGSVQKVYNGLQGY

How the values were obtained:
[1] = target: FLAG-tagged DNAJB11 T188E (human) (UniProt Q9UBS4); test: co-IP; cells expressing FLAG-tagged DNAJB11, T188A or T188E with tau^P301L or TTR^A25T, 10 μM etoposide 48 h; immunoprecipitates probed with anti-GFP or anti-FLAG
[2] = target: FLAG-tagged DNAJB11 T188A (human) (UniProt Q9UBS4); test: as above

binding [1]: no binding | binding [2]: no binding
Substance: tau^P301L-GFP (from UniProt P10636-8)
